Experimental findings from PubChem BioAssay AID493014 (National Center for Advancing Translational Sciences (NCATS), 2011) are described below.

The assay in a line: qHTS Assay to Find Inhibitors of Chronic Active B-Cell Receptor Signaling. As to conditions: ABC-DLBCL IkBa-CBG/CBR reporter, luminescence ratio (green luciferase fused to IkBa over red control in TMD8 lymphoma cells), 4 h. The method in brief:
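TMD8 human ABC-DLBCL cells with doxycycline-inducible IκBα–green luciferase fusion and unfused red luciferase, in 0.5% FBS medium; compounds up to 46 uM, 4 h at 37C. Green/red luminescence ratio, filter-overlap corrected, fitted to concentration-response curves.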
Background: qHTS replaces the single test concentration by a dilution series.

The mark [1] stands for this setting: measured here: CBR red luminescence, cell number.
Where [2] appears, read: measured here: IkBa-CBG green luminescence.

The structures appear in SMILES notation. Some of the results follow. Further columns of the screen follow, without active or inactive calls. Compounds called inactive in the main read-out are mostly missing here. The note in brackets gives the kind of curve behind each potency; many fits are weak.

As to `O=[N+]([O-])c1nn(-c2ccc3c(c2)OCCO3)n(O)c1=NC1CCCCC1`, the AC50 – broadly, the concentration giving half of the maximal activity seen – under setting [1] was 16.4 µM [rising, single point].
Still for that read-out and setting: in the case of `Cc1ccc(CNC(=O)CCC2CCCN(Cc3cccc4cccnc34)C2)o1` (stereo not given) it was 22.4 µM [falling, partial curve, poor fit].
Take `CCOc1ccc2nc(NS(=O)(=O)Cc3ccccc3)sc2c1`: under setting [2], the AC50 was 2.91 µM [falling, full curve].
On to `CCOC(=O)c1cnn(-c2ccccc2)c1-c1ccncc1`, for which the AC50 under setting [1] was 10 µM [falling, partial curve, poor fit].
On the same count and under the same terms, in the case of `Cc1cc(C(=O)NCc2ccc(F)cc2)c2ccccc2n1` it was 0.0891 µM [rising, full curve, poor fit].
Same read-out and setting: in the case of `C/C(=C\c1ccccc1)C(=O)NCCc1ccccc1` it was 11.2 µM [falling, single point].
On the same count and under the same terms, in the case of `CCCCC(=O)Nc1cccc(NC(=O)c2cccnc2Cl)c1` it was 35.5 µM [falling, single point].
In the case of `O=C1C2CCCN2C(=S)N1C1CCCCC1` (stereo not given), under setting [1], the half-maximal activity concentration (AC50) is 20 µM [falling, single point].
As for `Cc1ccc(N2CC(C(=O)OCC(=O)Nc3ccccc3F)CC2=O)cc1` (stereo not given), under setting [1], the AC50 was 17.8 µM [rising, partial curve, poor fit].
On the same count and under the same terms, in the case of `Cc1cc(S(=O)(=O)NCC(C)C)ccc1OCC(=O)N1CCOCC1` it was 6.51 µM [rising, single point].
Turning to `Cc1cccc(OCCCC(=O)NNC(=O)c2cccc(N(C)C)c2)c1`, the AC50 by setting is: under setting [1], 29.1 µM [rising, single point]; under setting [2], 13 µM [falling, partial curve, poor fit].
In the case of `Cc1ccc(/C=N/Nc2cc(C)nc(NCc3ccccc3)n2)cc1`, under setting [1], the AC50 is 10 µM [rising, partial curve].
The same measure, in the same setting: in the case of `CC(C)CCn1cnc2c([nH]c3cccc(Cl)c32)c1=O` it was 0.501 µM [rising, partial curve, poor fit]; in that of `CCOC(=O)C1=C(c2ccccc2)NC(SCC(=O)Nc2cccc(C)c2)=C(C#N)C1c1ccco1` (stereo not given), 2.24 µM [falling, partial curve, poor fit]; in that of `O=C(O)c1cccc(S(=O)(=O)N2CCCC(c3nc4c(nnn4Cc4ccccc4Cl)c(=O)[nH]3)C2)c1` (stereo not given), 35.5 µM [falling, single point].
Same read-out and setting: in the case of `COCCn1c(SCC(=O)c2[nH]c(C)c(C(C)=O)c2C)nc2ccccc21` it was 0.58 µM [rising, full curve, poor fit].
The same measure, in the same setting: in the case of `c1ccc(CNCC2COc3ccccc3O2)cc1` (stereo not given) it was 16.4 µM [rising, single point].
As to `CNC(=O)c1c(Cl)cnn1-c1ccccc1`, the AC50 under setting [1] is 35.5 µM [rising, single point].
On the same count and under the same terms, in the case of `O=C(Nc1ccc(F)cc1)c1nc(S(=O)(=O)Cc2ccccc2)ncc1Cl` it was 6.31 µM [falling, full curve]; in that of `O=C(Nc1cc(-c2ccccc2)[nH]n1)c1ccccc1`, 0.794 µM [falling, full curve].
Still for that read-out and setting: in the case of `CC(NC(=O)c1ccc(F)cc1)C(c1cccs1)N1CCN(C)CC1` (stereo not given) it was 0.13 µM [rising, full curve, poor fit].
Consider `Fc1cccc(CSc2nnc3c(n2)[nH]c2ccccc23)c1`, for which, under setting [1], the AC50 was 0.631 µM [rising, full curve, poor fit].
With `O=C(O)c1cc(S(=O)(=O)Nc2ccc3cn[nH]c3c2)ccc1Br`, the concentration at half-maximal activity (AC50) under setting [1] was 29.1 µM [falling, single point].
On the same count and under the same terms, in the case of `Cc1ccc(C(=O)Nc2ccc(SC(F)F)cc2)s1` it was 15.8 µM [falling, single point]; in that of `CCOC(=O)N1CCC(NC(=O)CSCc2nc(-c3ccc(OCC)cc3)oc2C)CC1`, 35.5 µM [falling, single point]; in that of `Cc1cccc(NC(=O)[C@H](NC(=O)[C@@H]2Cc3ccccc3CN2)c2ccccc2)c1`, 12.6 µM [falling, partial curve, poor fit].
In the case of `CCCN1CNc2c(c(=O)[nH]c(=S)n2-c2ccccc2Cl)C1`, under setting [1], the AC50 is 35.5 µM [rising, single point].
Same read-out and setting: in the case of `O=[N+]([O-])c1ccc(Cl)cc1N1CCCC1` it was 15.8 µM [rising, single point].
As to `c1ccc(C2=NNC(c3ccccn3)=NN2)nc1`, the AC50 reads like this: under setting [1], 2.82 µM [falling, full curve]; under setting [2], 3.55 µM [rising, single point].
Regarding `COc1cc(/C=N/NC(=O)c2cc3ccccc3[nH]2)ccc1O`, under setting [1], the concentration at half-maximal activity (AC50) was 10 µM [falling, partial curve].
The same measure, in the same setting: in the case of `CCc1cccc2c3c([nH]c12)C(CC)(CC(=O)O)OCC3` (stereo not given) it was 0.0058 µM [rising, full curve, poor fit]; in that of `COc1ccc(NC(=O)c2cnc(SCC(=O)Nc3nc4ccc(C)cc4s3)n(C)c2=O)cc1`, 4.47 µM [falling, single point]; in that of `CSc1nsc(SCC(=O)Nc2nncs2)n1`, 35.5 µM [falling, single point].
As for `CC(C)C(=O)Nc1ccc2c(c1)oc1ccccc12`, the half-maximal activity concentration (AC50) under setting [1] is 16.4 µM [falling, single point].
The same measure, in the same setting: in the case of `O=C(Nc1cccc(F)c1)Nc1ccc2c(c1)OCO2` it was 20 µM [falling, single point]; in that of `Cc1ccc(C(=O)N(Cc2nc3ccccc3c(=O)[nH]2)C2CCCC2)cc1`, 12.6 µM [falling, partial curve].
Still for that read-out and setting: in the case of `Oc1c(Cl)cc(Cl)cc1/C=N/NC(=S)NC1CC2C=CC1C2` (stereo not given) it was 12.6 µM [falling, partial curve]; in that of `O=C(Nc1ccc(Br)cc1)c1cccc(S(=O)(=O)Nc2ccccn2)c1`, 35.5 µM [falling, single point]; in that of `CCCc1sc(N/N=C/c2ccccn2)nc1-c1ccc(Br)cc1`, 13 µM [rising, partial curve].
As to `O=C(CCc1ccccc1)NCC(c1ccco1)N1CCc2ccccc21` (stereo not given), the half-maximal activity concentration (AC50) is 18.4 µM [rising, partial curve] under setting [1] and 18.4 µM [falling, single point] under setting [2].
In the case of `Cc1ccnc(N2CCC(C(=O)Nc3cccc(C(F)(F)F)c3)CC2)n1`, under setting [1], the AC50 is 22.4 µM [falling, partial curve, poor fit].
Still for that read-out and setting: in the case of `O=C(NC(=S)Nc1cccnc1Cl)c1ccco1` it was 12.6 µM [falling, partial curve].
